From article PMC6657086
Results are given in words; binding and its absence hold for the method and conditions named. In cells and extracts the contact can be indirect. Some binding calls cover weakened binding; strength is not graded here. Tags and fused reporters may be left off the sequences shown.

Sequences of proteins named here, by UniProt entry; tags and fusion partners are left off.
UniProt P17096: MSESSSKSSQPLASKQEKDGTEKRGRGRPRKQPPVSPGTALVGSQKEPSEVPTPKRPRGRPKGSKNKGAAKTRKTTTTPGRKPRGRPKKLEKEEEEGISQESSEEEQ

Experiments:
[1] = target: T1, KIFC1-Flag (kinesin family member C1), stably expressed in HepG2 cells (human) (UniProt Q9BW19); test: co-IP; HepG2-vector and HepG2-KIFC1-Flag cell lysates; Flag tag antibody and HMGA1 antibody (ab129153); western blot
T1 sequence: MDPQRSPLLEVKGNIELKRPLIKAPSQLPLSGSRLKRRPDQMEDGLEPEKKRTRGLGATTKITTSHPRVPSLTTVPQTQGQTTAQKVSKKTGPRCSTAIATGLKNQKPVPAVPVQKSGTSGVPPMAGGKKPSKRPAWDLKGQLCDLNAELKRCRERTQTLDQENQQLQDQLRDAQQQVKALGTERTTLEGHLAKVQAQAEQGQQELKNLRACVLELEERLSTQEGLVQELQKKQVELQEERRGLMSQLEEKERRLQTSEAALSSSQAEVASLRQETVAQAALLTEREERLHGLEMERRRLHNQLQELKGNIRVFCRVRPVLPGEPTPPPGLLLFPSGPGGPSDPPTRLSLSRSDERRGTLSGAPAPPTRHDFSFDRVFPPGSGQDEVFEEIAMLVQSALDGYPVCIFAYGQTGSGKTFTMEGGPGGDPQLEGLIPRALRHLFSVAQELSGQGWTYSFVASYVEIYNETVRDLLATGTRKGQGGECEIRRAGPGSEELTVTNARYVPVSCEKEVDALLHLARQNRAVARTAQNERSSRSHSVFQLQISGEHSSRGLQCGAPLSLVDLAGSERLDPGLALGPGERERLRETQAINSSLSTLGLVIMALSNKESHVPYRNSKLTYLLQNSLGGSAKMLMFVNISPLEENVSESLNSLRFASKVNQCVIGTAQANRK

[2] = target: T2, Flag-KIFC1, transfected in HEK-293 T cells (human) (UniProt Q9BW19); test: co-IP; HEK-293 T cells transfected with Flag-KIFC1 or Myc-HMGA1 or both; Flag-tag and Myc-tag antibodies; western blot
T2 sequence: T1 sequence

Row | binding [1] | binding [2] | Substance
1 | binds | – | HMGA1 (high mobility group AT-hook 1), endogenous in HepG2 cells (from UniProt P17096 1-107)
2 | – | binds | Myc-HMGA1, transfected in HEK-293 T cells (from UniProt P17096 1-107)
